“And” between values parts separate entries of the source, which are not always exact repeats. Equal entries are not always repeated. Out of some 300,000 compounds screened, about 5,400 (1.8%) were called active. This list was built around the results that the source calls inconclusive (neither active nor inactive); the mix of calls is not that of the screen. The call rests on the fitted dose curve; tested in HEK293 cells. Potencies of inconclusive entries are doubtful fits and often do not repeat.
Test: qHTS for inhibitors of binding or entry into cells for Marburg Virus
Settings: Marburg virus pseudotyped entry inhibition, cell reporter; activity change, negative = inhibition: at 37.8 µM (top of the series) unless noted
On the % scale 0 is the no-effect control and ±100 the full control effect; potency means the concentration at half of the fitted maximal effect.

Row | SMILES | Potency | activity change, negative = inhibition
1 | CC(NC(=O)COC(=O)CN1C(=O)c2ccccc2C1=O)c1ccccc1 (centres undefined) | inconclusive: 0.562 µM [inhibitor, partial curve, poor fit] | 
2 | COc1cc(OC)cc(C(=O)NCC(=O)OCC(=O)N2c3ccccc3NC(=O)C2(C)C)c1 |  | inactive: 5.54% [at 46.1 µM]
3 | O=C(c1cccc(F)c1)N1CCN(S(=O)(=O)c2ccccc2)CC1 |  | inactive: 1.16%
4 | COc1cc2c(C(=O)N3CCN(c4cccc(C)c4)C(C)C3)cn(CC(C)C)c(=O)c2cc1OC (centres undefined) | inconclusive: 6.31 µM [inhibitor, partial curve] | 
5 | CCCC(=O)NCCc1cc2ccc(OC)cc2[nH]c1=O | inconclusive: 2.91 µM [inhibitor, partial curve, poor fit] | 
6 | CCc1nc(OCc2ccccc2)c2sc3nc4c(cc3c2n1)COC(C)(C)C4 | active: 16.4 µM | 
7 | CCc1nnc(NC(=O)CSc2nc3c(C)cccc3[nH]2)s1 | inconclusive: 29.1 µM [activator, single point] | 
8 | Cc1cccc(S(=O)(=O)Nc2ccncc2)c1 | inconclusive: 7.94 µM [activator, partial curve] | 
9 | COc1ccccc1NC(CC(=O)c1ccccc1)C(=O)OCC(=O)c1ccc(Br)cc1 (centres undefined) | inconclusive: 35.5 µM [inhibitor, single point] | 
10 | O=C(COn1nnc2ccc(S(=O)(=O)N3CCOCC3)cc21)NCCc1ccccc1 |  | inactive: -1.68%
11 | Cc1ccc(C)n1-c1nn(S(=O)(=O)c2ccccc2)c2cccc(F)c12 | inconclusive: 35.5 µM [inhibitor, single point] | 
12 | O=S(=O)(NCC(Nc1ccccc1)c1ccccc1)c1ccc(Cl)cc1 (centres undefined) | inconclusive: 23.1 µM [inhibitor, single point] | 
13 | CCCCCCCCCn1c2c(c(=N)c3c1CCC3)CCCC2 | inconclusive: 1.3 µM [inhibitor, full curve, poor fit] | 
14 | c1csc(-c2nnc3ccccn23)c1 | inconclusive: 29.1 µM [activator, single point] | 
15 | Cn1c(/C=C/c2ccc(Br)cc2)c([N+](=O)[O-])c(=O)n(C)c1=O | inconclusive: 17.8 µM [inhibitor, partial curve, poor fit] | 
16 | O=c1cc(N/N=C/c2ccccc2)[nH]c(=O)[nH]1 | inconclusive: 11.2 µM [inhibitor, partial curve, poor fit] | 
17 | COc1ccc(C(=O)c2c[nH]c(C(=O)N=CN(C)C)c2)cc1 | inconclusive: 5.62 µM [activator, partial curve] | 
18 | FC(F)(F)c1cnc(COc2cc(Cl)cc(Cl)c2)c(Cl)c1 |  | inactive: 0.0503% [at 46.1 µM]
19 | CSc1nc(-c2ccccc2)nn1C(=O)c1ccc(Cl)cc1 |  | inactive: -2.9%
20 | CNC(=O)c1csc(-c2cccs2)n1 |  | inactive: 5.5%
21 | CCOc1ccc(C2NC(=O)NC(C)=C2C(=O)OCc2ccccc2)cc1 (centres undefined) |  | inactive: -1.77%
22 | CCOc1ccc(C(=O)C(C)OC(=O)C2CCN(c3ccc(C(F)(F)F)cn3)CC2)cc1 (centres undefined) | inconclusive: 22.4 µM [inhibitor, single point] | 
23 | CN(C)c1nc(N)nc(CSc2nc3cc(Cl)ccc3o2)n1 | inconclusive: 25.9 µM [activator, single point] | 

Retrieved by compound from above (3):
Row | SMILES | Potency | activity change, negative = inhibition
6 | CCc1nc(OCc2ccccc2)c2sc3nc4c(cc3c2n1)COC(C)(C)C4 | active: 16.4 µM | 
14 | c1csc(-c2nnc3ccccn23)c1 | inconclusive: 29.1 µM [activator, single point] | 
20 | CNC(=O)c1csc(-c2cccs2)n1 |  | inactive: 5.5%

Remaining list, next part:

Row | SMILES | Potency | activity change, negative = inhibition
24 | Cc1cccc(NCc2ccccc2O)c1 |  | inactive: 11.9%
25 | COc1ccc(-c2nc(-c3cccc(C)c3)nc(N3CCN(C)CC3)c2C#N)cc1 | inconclusive: 6.31 µM [inhibitor, partial curve, poor fit] | 
26 | CC1C(=O)N(Cc2cn(CC3CCCCC3)nn2)CCS(=O)(=O)N1Cc1ccc(-c2ccccc2)cc1 (centres undefined) | inconclusive: 4.99 µM [inhibitor, full curve] | 
27 | COc1ccc(CCN(C(=O)C(F)(F)F)C(C(=O)NC2CCCC2)c2cccs2)cc1 (centres undefined) | inconclusive: 25.9 µM [inhibitor, single point] | 
28 | COc1cc2c(cc1NC(=O)COC(=O)Cn1cnc3ccccc31)oc1ccccc12 | inactive and inconclusive: 5.01 µM [activator, single point] | 
29 | O=C(Nc1ccc2nn(-c3ccc(F)cc3)nc2c1)c1cccnc1 | inconclusive: 20 µM [inhibitor, partial curve, poor fit] | 
30 | CCOc1ccc(-c2cn3c(n2)sc2cc(C(=O)NCCc4ccc(OC)cc4OC)ccc23)cc1 | inconclusive: 2.82 µM [inhibitor, partial curve, poor fit] | 
31 | CCOc1ccccc1-c1noc(CCC(=O)NC2CCCCC2)n1 | inconclusive: 35.5 µM [activator, single point] | 
32 | N#CC1=C(N)Oc2cc(O)c(C=Nc3ccccc3)cc2C1c1ccccc1 (centres undefined) | inconclusive: 4.47 µM [inhibitor, partial curve, poor fit] | 
33 | CC(C)CCOc1ccc(C2N=C(N)Nc3nc4ccccc4n32)cc1 (centres undefined) | inconclusive: 25.1 µM [inhibitor, single point] | 
34 | Cc1nn(C(C)C(=O)NC2CCC(C)CC2)c(=O)c2c1sc1ccccc12 (centres undefined) | inconclusive: 7.08 µM [inhibitor, full curve, poor fit] | 
35 | COc1cc(CNC23CC4CC(CC(C4)C2)C3)ccc1OCc1ccccc1 | active: 5.01 µM | 
36 | COc1ccc(/C=N/N2CCOCC2)cc1COc1ccc(F)cc1 |  | inactive: 1.89%
37 | COc1ccc(CC(=O)Nc2cc(C)ccn2)cc1OC |  | inactive: 1.75%
38 | O=C(NCc1ccc2c(c1)OCO2)NC1CCCCC1 |  | inactive: -3.6% [at 46.1 µM]
39 | CCn1nc(C)cc1-c1nnc(SCC(=O)Nc2ccccc2)n1CCCOC |  | inactive: -6.62% [at 14.2 µM]
40 | O=C(CN1CCOCC1)N/N=C/c1cccc2ccccc12 | inconclusive: 15.8 µM [inhibitor, partial curve, poor fit] | 
41 | O=C(NCc1ccccc1)c1nc(S(=O)(=O)Cc2ccc(F)cc2)ncc1Cl | inconclusive: 15.8 µM [inhibitor, partial curve, poor fit] | 
42 | S=C(NCc1ccco1)N/N=C/c1ccncc1 |  | inactive: -24.9% [at 46.1 µM]
43 | O=C(CS(=O)(=O)c1c[nH]c2ccccc12)N1CCCCC1 | inconclusive: 5.62 µM [inhibitor, single point] | 
44 | COc1ccc(S(=O)(=O)c2cnc3cc(OC)c(OC)cc3c2N2CCCC(C)C2)cc1 (centres undefined) | inconclusive: 35.5 µM [inhibitor, partial curve, poor fit] | 
45 | CSC(=NC#N)N1CCN(c2ccc(Cl)cc2)CC1 |  | inactive: 12.8%
46 | COc1ccccc1C(=O)N(Cc1nc(-c2cccc(C)c2)no1)C(C)C | inconclusive: 35.5 µM [inhibitor, single point] | 

Row | SMILES | Potency | activity change, negative = inhibition
47 | CCOC(=O)c1ccc(NC(=O)c2ccc(NC(=O)c3ccccc3)cc2)cc1 |  | inactive: -14.1%
48 | Cc1cccc(-n2c(CCc3ccccc3)nnc2SCC(=O)c2ccccc2)c1 | inconclusive: 11.2 µM [inhibitor, partial curve, poor fit] | 
49 | Cc1cc(C)nc(NC(=O)c2cc3ccccc3o2)n1 | inconclusive: 2.59 µM [inhibitor, partial curve] | 
50 | CCCNc1nc2ccccc2n2c(C)nnc12 |  | inactive: -9.02%
51 | CN1CCCC1CCNS(=O)(=O)c1ccc(Br)cc1 (centres undefined) | inconclusive: 22.4 µM [inhibitor, single point] | 
52 | CCOc1ccc(OCc2ccc(C(=O)NCc3cccnc3)o2)cc1 |  | inactive: -8.77%
53 | Cc1cc(/C=C2/C(=O)NN(c3ccccc3)C2=O)c(C)n1-c1cccc(O)c1 | inconclusive: 0.794 µM [inhibitor, full curve, poor fit] | 
54 | CN(C)CCOc1nc(-c2ccccc2)nc2c1oc1ccccc12 | inconclusive: 35.5 µM [inhibitor, single point] | 
55 | Cc1cc(C)n(C[C@@H]2CC(=O)N(c3cc(Cl)cc(Cl)c3)C2=O)n1 |  | inactive: 4.18%
56 | O=C(O)c1cc2c(cn1)[nH]c1ccccc12 | inconclusive: 8.91 µM [inhibitor, single point] | 
57 | CCn1c(C)nc2cc(C(=O)NNC(=O)Nc3cccc(Cl)c3)ccc21 | inconclusive: 3.16 µM [activator, partial curve, poor fit] | 
58 | CC(NC(=O)c1ccc(OC2CCN(Cc3ccccn3)CC2)cc1)c1nccs1 (centres undefined) | inconclusive: 31.6 µM [activator, single point] | 
59 | COc1ccc(N(CC(=O)NC(C)c2ccccc2)S(=O)(=O)c2c(C)nn(C)c2C)cc1 (centres undefined) | inconclusive: 7.08 µM [inhibitor, partial curve, poor fit] | 
60 | CC(C)Nc1ccc(-c2nc(-c3ccncc3)no2)cc1[N+](=O)[O-] |  | inactive: 0.769% [at 46.1 µM]
61 | NS(=O)(=O)c1cccc(NC(=S)NC(=O)C23CC4CC(CC(C4)C2)C3)c1 | inconclusive: 6.31 µM [activator, partial curve, poor fit] | 
62 | Cc1cc(C)c(S(=O)(=O)c2ccccc2)c(OC(=O)c2c(Cl)cccc2Cl)n1 | inconclusive: 1.26 µM [inhibitor, single point] | 
63 | CCOC(=O)C1=C(O)C(=O)N(Cc2ccc(C(C)(C)C)cc2)CC1 | inconclusive: 32.6 µM [activator, partial curve, poor fit] | 
64 | CN(CCCCN1CCOCC1)Cc1nc(-c2ccc3c(c2)OCO3)no1 | inconclusive: 3.16 µM [activator, single point] | 
65 | COC(c1ccccc1)c1nnc(CCC(=O)N(C)CCOc2ccccc2)o1 (centres undefined) |  | inactive: -27.6% [at 46.1 µM]
66 | Cc1cc(Br)ccc1NC(=O)CN(C)C(=O)C1CCN(C(=O)c2ccc(F)cc2)CC1 |  | inactive: -12.6%
67 | O=c1cc(NC2CCCCC2)[nH]c(=O)[nH]1 | inconclusive: 0.316 µM [inhibitor, full curve, poor fit] | 
68 | Cn1c(O)c(C2=c3ccccc3=NC2=O)sc1=Nc1ccc(Cl)cc1 | inconclusive: 0.0058 µM [inhibitor, full curve, poor fit] | 
69 | Cc1ccc(NC(=O)c2cccc(S(=O)(=O)N(C)c3ccccc3)c2)cc1S(=O)(=O)N1CCOCC1 | inconclusive: 25.1 µM [inhibitor, single point] | 

From PubChem BioAssay AID540276 (National Center for Advancing Translational Sciences (NCATS), 2011)
